Values from PubChem BioAssay AID1671195 (Yale University, 2021)
In all, the deposit lists about 22,000 reagents; below is a random part of them. Over the whole deposit, about 1,510 (6.9%) were called active. 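Active includes knockdowns raising or lowering LDL uptake; positive z-scores mean more uptake, negative mean less.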 Reagent sequences are not shown.

Purpose: 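Genes whose knockdown alters LDL uptake in liver cancer cells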 (primary screen)
Cell system: human Huh7 hepatoma cells
Reagent: siRNA pool against human genes, 18 nM
Timing: about 2 to 2.5 days of knockdown, then 8 h LDL uptake
Challenge: DiI-labelled LDL at 30 µg/ml for 8 h, in lipoprotein-deficient serum medium
Measurement: 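Per-cell DiI-LDL intensity by automated imaging; well means scaled to the plate median and given as a robust z-score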
Direction: robust z-score: higher = more LDL uptake after knockdown
Rule for the call: 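Active when two or more replicates show a robust z-score above 2 or below -2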

With knock-down of PARD3B (par-3 family cell polarity regulator beta) [SID442904509], the record shows robust z-score, replicate 1 = -1.68; robust z-score, replicate 2 = -1.66; robust z-score, replicate 3 = -1.7; inactive. After knock-down of B3GNT4 [SID442898121], the record shows robust z-score, replicate 1 = -0.535; robust z-score, replicate 2 = -0.223; robust z-score, replicate 3 = -0.633; inactive. BTG2 (BTG anti-proliferation factor 2) [SID442904632] scored robust z-score, replicate 1 = -2.07; robust z-score, replicate 2 = -1.6; robust z-score, replicate 3 = -1.63; inactive. ODF4 (outer dense fiber of sperm tails 4) [SID442895111] gave robust z-score, replicate 1 = -0.154; robust z-score, replicate 2 = 0.254; robust z-score, replicate 3 = -0.503; inactive. With knock-down of EPHA7 (EPH receptor A7) [SID442894913], the screen gave robust z-score, replicate 1 = -0.0977; robust z-score, replicate 2 = 0.582; robust z-score, replicate 3 = -0.825; inactive. For DNER (delta/notch like EGF repeat containing) [SID442893247], the values are robust z-score, replicate 1 = 0.00575; robust z-score, replicate 2 = 0.373; robust z-score, replicate 3 = -0.162; inactive.

After knock-down of LOC441040 (retired record) [SID442894182], the screen gave robust z-score, replicate 1 = 0.0176; robust z-score, replicate 2 = 0.0202; robust z-score, replicate 3 = -0.145; inactive. Depletion of PRTFDC1 (phosphoribosyl transferase domain containing 1) [SID442883379] came out at: robust z-score, replicate 1 = 3.5; robust z-score, replicate 2 = 2.18; robust z-score, replicate 3 = 3.56; active. After knock-down of PART1 (prostate androgen-regulated transcript 1) [SID442887214] the results were robust z-score, replicate 1 = 0.878; robust z-score, replicate 2 = 1.83; robust z-score, replicate 3 = 0.171; inactive. Depletion of OR8J3 (olfactory receptor family 8 subfamily J member 3) [SID442900674] came out at: robust z-score, replicate 1 = -1.27; robust z-score, replicate 2 = -0.293; robust z-score, replicate 3 = -0.816; inactive. For POGK (pogo transposable element derived with KRAB domain) [SID442904463] the deposit lists robust z-score, replicate 1 = -1.98; robust z-score, replicate 2 = -1.52; robust z-score, replicate 3 = -1.46; inactive. With knock-down of LOC442369 (retired record) [SID442893707] the results were robust z-score, replicate 1 = -0.16; robust z-score, replicate 2 = -0.0231; robust z-score, replicate 3 = 0.241; inactive.
